# Assay results taken from patent publication US20030191084A1.
# Sequences of proteins named here, by UniProt entry; tags and fusion partners are left off. A change or cut given only in a name is not applied to a line headed by its entry. Residues count along the entry.
# UniProt P02745: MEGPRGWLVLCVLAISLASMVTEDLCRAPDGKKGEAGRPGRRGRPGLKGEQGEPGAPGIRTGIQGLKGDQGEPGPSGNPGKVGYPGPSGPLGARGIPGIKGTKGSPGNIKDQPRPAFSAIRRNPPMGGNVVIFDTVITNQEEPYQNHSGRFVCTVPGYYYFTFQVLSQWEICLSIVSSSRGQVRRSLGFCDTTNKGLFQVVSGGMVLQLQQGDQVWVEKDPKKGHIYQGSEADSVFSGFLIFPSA
# UniProt P02743, residues 20-223: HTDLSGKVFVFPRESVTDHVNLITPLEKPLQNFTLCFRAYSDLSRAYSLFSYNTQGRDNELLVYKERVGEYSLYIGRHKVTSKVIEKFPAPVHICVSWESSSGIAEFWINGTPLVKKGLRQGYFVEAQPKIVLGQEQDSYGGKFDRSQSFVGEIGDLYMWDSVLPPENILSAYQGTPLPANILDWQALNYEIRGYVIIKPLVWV
# These are yes or no findings as the source states them, for the method shown. Some entries that bind do so weakly or less than the wild type.
# Molecular target: Complement System Protein C1q (UniProt P02745)
# Assay: nitrocellulose filter assay; protein competes with labelled 2'-NH2 RNA ligand #50 for C1q
substance,measurement,value
serum amyloid protein (SAP) (from UniProt P02743 20-223) (other; other documents disagree on this pair),binding,binds
